Source: patent US20190015494A1
These are yes or no findings as the source states them, for the method shown. In cells and extracts the contact can be indirect. Some binding calls cover weakened binding; strength is not graded here.

Assays:
[1] = target: HLA B*0702 class I MHC molecule (human); assay: LC-MS/MS of peptides eluted from immunoaffinity-purified class I MHC; note v of Table 4 (associated with HLA B*0702)
[2] = target: HLA B*0702 class I MHC molecule (human); assay: LC-MS/MS of peptides eluted from immunoaffinity-purified class I MHC; Table 4: associated with HLA B*0702
[3] = target: HLA B*0702 class I MHC molecule (human); assay: LC-MS/MS of eluted class I MHC peptides; Table 7: presented by HLA B*0702 on ALL
[4] = target: HLA B*0702 class I MHC molecule (human); assay: LC-MS/MS of eluted class I MHC peptides; Table 7: presented by HLA B*0702 on ALL, CLL
[5] = target: HLA B*0702 class I MHC molecule (human); assay: LC-MS/MS of peptides eluted from immunoaffinity-purified class I MHC; Table 5: associated with HLA B*0702
[6] = target: HLA B*0702 class I MHC molecule (human); assay: LC-MS/MS of eluted class I MHC peptides; Table 7: presented by HLA B*0702 on ALL, CLL, S
[7] = target: HLA B*0702 class I MHC molecule (human); assay: LC-MS/MS of peptides eluted from immunoaffinity-purified class I MHC; note ix of Table 4 (associated with HLA B*0702)
[8] = target: HLA B*0702 class I MHC molecule (human); assay: LC-MS/MS of eluted class I MHC peptides; Table 7: presented by HLA B*0702 on CLL

| Binder | binding [2] | binding [3] | also measured |
| --- | --- | --- | --- |
| IPVSSHNSL (acetyl-GlcNAc on S4) [IPVsSHNSL, acetyl-GlcNAc (S4) form (SEQ ID NO: 19)] |  |  | binding [1]: binds |
| APPSTSAAAL (O-GlcNAc on S6) [APPSTsAAAL (SEQ ID NO: 2)] | binds |  |  |
| LPTSLPSSL (O-GlcNAc on S4) [LPTsLPSSL (SEQ ID NO: 24)] | binds | binds |  |
| IPTSSVLSL (O-GlcNAc on S4) [IPTsSVLSL (SEQ ID NO: 17)] | binds | binds |  |
| APPSTSAAAL (hexose-GlcNAc on S4 and on S6) [APPsTsAAAL (2 hexose-GlcNAc) (SEQ ID NO: 2)] |  |  | binding [5]: binds |
| PPSTSAAAL (O-linked hexose-GlcNAc on S5) [PPSTsAAAL (hexose-GlcNAc) (SEQ ID NO: 28)] |  |  | binding [5]: binds |
| EPSSTVVSL (O-GlcNAc, site not assigned: S3, S4 or T5 could be the site) [EP(sst)VVSL (SEQ ID NO: 9)] |  | binds |  |
| EPSSTVVSL (O-GlcNAc on T5) [EPSStVVSL (SEQ ID NO: 9)] | binds |  |  |
| PPSTSAAAL (O-linked hexose-GlcNAc on T4) [PPStSAAAL (hexose-GlcNAc) (SEQ ID NO: 28)] |  |  | binding [5]: binds |
| APTSASNVM (O-GlcNAc on S4) [APTsASNVM (SEQ ID NO: 6)] | binds |  |  |
| HPSSTASTAL (O-GlcNAc on T5) [HPSStASTAL (SEQ ID NO: 14)] | binds |  |  |
| APPSTSAAAL (hexose-GlcNAc on S6) [APPSTsAAAL (hexose-GlcNAc) (SEQ ID NO: 2)] |  |  | binding [5]: binds |
| APVSASASV (O-GlcNAc on S4) [APVsASASV (SEQ ID NO: 7)] | binds | binds |  |
| APRTNGVAM (O-GlcNAc on T4) [APRtNGVAM (SEQ ID NO: 4)] | binds |  | binding [4]: binds |
| IPISLHTSL (O-GlcNAc on S4) [IPIsLHTSL (SEQ ID NO: 16)] | binds | binds |  |
| KPPTSQSSVL (O-GlcNAc on S5) [KPPTsQSSVL (SEQ ID NO: 20)] | binds |  |  |
| APPSTSAAAL (O-GlcNAc on S4 and on T5) [APPstSAAAL (SEQ ID NO: 2)] | binds |  |  |
| APTSASNVM (O-GlcNAc on S6) [APTSAsNVM (SEQ ID NO: 6)] | binds |  |  |
| APPSTSAAAL (hexose-GlcNAc on S4 and on T5) [APPstSAAAL (2 hexose-GlcNAc) (SEQ ID NO: 2)] |  |  | binding [5]: binds |
| APPSTSAAAL (hexose-GlcNAc on T5; GlcNAc on S6) [APPStsAAAL (hexose-GlcNAc, GlcNAc) (SEQ ID NO: 2)] |  |  | binding [5]: binds |
| APPSTSAAAL (hexose-GlcNAc on T5 and on S6) [APPStsAAAL (2 hexose-GlcNAc) (SEQ ID NO: 2)] |  |  | binding [5]: binds |
| EPSSTVVSL (O-GlcNAc on S3) [EPsSTVVSL (SEQ ID NO: 9)] | binds |  |  |

| Binder | binding [2] | binding [3] | also measured |
| --- | --- | --- | --- |
| HPSSTASTAL (O-GlcNAc, site not assigned: S3, S4 or T5 could be the site) [HP(sst)ASTAL (SEQ ID NO: 14)] |  | binds |  |
| MPVRPTTNTF (asymmetric di-methyl on R4; hexose-GlcNAc on T7) [MPVRPTtNTF, asymmetric di-methyl (R4) + hexose-GlcNAc (T7) form (SEQ ID NO: 25)] |  |  | binding [7]: binds |
| APRGNVTSL (N-linked hexose-GlcNAc on N5) [APRGnVTSL (hexose-GlcNAc) (SEQ ID NO: 3)] |  |  | binding [5]: binds; binding [8]: binds |
| KPPTSQSSVL (hexose-GlcNAc on S5 as printed in the sequence; note vi says hexose-GlcNAc (T4)) [KPPTsQSSVL (hexose-GlcNAc) (SEQ ID NO: 20)] |  |  | binding [5]: binds |
| HPSSTASTAL (O-GlcNAc on S3) [HPsSTASTAL (SEQ ID NO: 14)] | binds |  |  |
| APPSTSAAAL (O-GlcNAc on S4) [APPsTSAAAL (SEQ ID NO: 2)] | binds |  |  |
| IPVSSHNSL (hexose-GlcNAc on S4) [IPVsSHNSL (hexose-GlcNAc) (SEQ ID NO: 19)] |  |  | binding [5]: binds |
| KPPTSQSSVL (O-GlcNAc on T4) [KPPtSQSSVL (SEQ ID NO: 20)] | binds |  |  |
| HPMSTASQV (O-GlcNAc on S4) [HPMsTASQV (SEQ ID NO: 11)] | binds | binds |  |
| APTSAAAL (O-GlcNAc on S4) [APTsAAAL (SEQ ID NO: 5)] | binds | binds |  |
| KPPVSFFSL (O-linked hexose-GlcNAc on S5) [KPPVsFFSL (hexose-GlcNAc) (SEQ ID NO: 21)] |  | binds | binding [5]: binds |
| LPRNSTMM (O-GlcNAc, site not assigned: S5 or T6 could be the site) [LPRN(st)MM (SEQ ID NO: 23)] |  | binds |  |
| LPRNSTMM (O-GlcNAc on S5 and on T6 as printed) [LPRNstMM (SEQ ID NO: 23)] | binds |  |  |
| APPSTSAAAL (hexose-GlcNAc on S4) [APPsTSAAAL (hexose-GlcNAc) (SEQ ID NO: 2)] |  |  | binding [5]: binds |
| APVSSKSSL (O-GlcNAc on S4) [APVsSKSSL (SEQ ID NO: 8)] | binds |  | binding [4]: binds |
| IPVSKPLSL (hexose-GlcNAc on S4) [IPVsKPLSL (hexose-GlcNAc) (SEQ ID NO: 18)] |  |  | binding [5]: binds |
| APPSTSAAAL (hexose-GlcNAc on T5) [APPStSAAAL (hexose-GlcNAc) (SEQ ID NO: 2)] |  |  | binding [5]: binds |
| HPSSTASTAL (O-GlcNAc on S4) [HPSsTASTAL (SEQ ID NO: 14)] | binds |  |  |
| IPVSSHNSL (O-GlcNAc on S4 and on S5) [IPVssHNSL (SEQ ID NO: 19)] | binds |  |  |
| APPSTSAAAL (O-GlcNAc on T5 and on S6) [APPStsAAAL (SEQ ID NO: 2)] | binds |  |  |
| EPSSTVVSL (O-GlcNAc on S4) [EPSsTVVSL (SEQ ID NO: 9)] | binds |  |  |
| APPSTSAAAL (O-GlcNAc on T5) [APPStSAAAL (SEQ ID NO: 2)] | binds |  |  |

Further lines, with some results ahead:

| binding [2] | binding [3] | Binder | also measured |
| --- | --- | --- | --- |
| binds | binds | VPVSNQSSL (O-GlcNAc on S4) [VPVsNQSSL (SEQ ID NO: 43)] |  |
| binds |  | VPASSTSTL (O-GlcNAc on S4) [VPAsSTSTL (SEQ ID NO: 39)] | binding [4]: binds |
| binds |  | RPPSSSQQL (O-GlcNAc on S5) [RPPSsSQQL (SEQ ID NO: 31)] |  |
| binds |  | VPTTSSSL (O-GlcNAc on T3) [VPtTSSSL (SEQ ID NO: 41)] |  |
| binds | binds | VPVSGTQGL (O-GlcNAc on S4) [VPVsGTQGL (SEQ ID NO: 42)] |  |
|  | binds | PPSTSAAAL (note x: T4 or S5 is modified by O-linked hexose-GlcNAc) [PPS(ts)AAAL (SEQ ID NO: 28)] |  |
| binds | binds | VPTTSSSL (O-GlcNAc on T4) [VPTtSSSL (SEQ ID NO: 41)] |  |
| binds | binds | VPVSSASEL (O-GlcNAc on S4) [VPVsSASEL (SEQ ID NO: 44)] |  |
| binds | binds | VPVSVGPSL (O-GlcNAc on S4) [VPVsVGPSL (SEQ ID NO: 45)] |  |
| binds |  | TPASSSSAL (O-GlcNAc on S4) [TPAsSSSAL (SEQ ID NO: 35)] | binding [4]: binds |
| binds |  | RPVTASITTM (O-GlcNAc on T4) [RPVtASITTM (SEQ ID NO: 33)] | binding [6]: binds |
| binds |  | VPTTSSSL (O-GlcNAc on S5) [VPTTsSSL (SEQ ID NO: 41)] |  |
| binds | binds | TPISQAQKL (O-GlcNAc on S4) [TPIsQAQKL (SEQ ID NO: 36)] |  |
| binds |  | TPASSRAQTL (O-GlcNAc on S5) [TPASsRAQTL (SEQ ID NO: 34)] | binding [8]: binds |
| binds |  | RPPVTKASSF (O-GlcNAc on T5) [RPPVtKASSF (SEQ ID NO: 32)] | binding [4]: binds |
| binds | binds | NPVSLPSL (O-GlcNAc on S4) [NPVsLPSL (SEQ ID NO: 27)] |  |
| binds |  | RPPSSSQQL (O-GlcNAc on S4) [RPPsSSQQL (SEQ ID NO: 31)] |  |
| binds |  | RPPSSSQQL (O-GlcNAc on S6) [RPPSSsQQL (SEQ ID NO: 31)] |  |
|  | binds | RPPSSSQQL (O-GlcNAc, site not assigned: S4, S5 or S6 could be the site) [RPP(sss)QQL (SEQ ID NO: 31)] |  |
|  | binds | RPPQSSSVSL (O-linked hexose-GlcNAc on S5) [RPPQsSSVSL (hexose-GlcNAc) (SEQ ID NO: 30)] | binding [5]: binds |
